This is an account of results in US20150111836.

The chains behind the UniProt entries cited, without tags or fusion partners. Where a name states a change or a piece, a line headed by the entry shows the natural chain unless it says otherwise.
UniProt Q9HC16: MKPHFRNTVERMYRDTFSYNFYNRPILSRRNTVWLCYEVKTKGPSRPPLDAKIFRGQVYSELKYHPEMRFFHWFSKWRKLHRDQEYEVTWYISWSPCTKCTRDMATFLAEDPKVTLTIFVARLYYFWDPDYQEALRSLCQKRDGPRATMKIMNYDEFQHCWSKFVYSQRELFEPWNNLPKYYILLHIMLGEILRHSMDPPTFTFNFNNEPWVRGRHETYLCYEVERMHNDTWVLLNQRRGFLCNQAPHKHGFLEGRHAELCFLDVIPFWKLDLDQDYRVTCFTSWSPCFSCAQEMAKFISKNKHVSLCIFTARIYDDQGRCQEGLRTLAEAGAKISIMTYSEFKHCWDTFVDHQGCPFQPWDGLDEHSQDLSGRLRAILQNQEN

The comparison behind a weaker result is the experiment's own reference, which may not be listed here.

The target of the data set is APOBEC3G (A3G) (Homo sapiens) (UniProt Q9HC16). Description: EMSA. As to conditions: purified recombinant protein, protein details: C-terminal Myc-His6, expressed in 293T cells.

“GGATTGGTTGGTTATTTGTTTAAGGAAGGAAGAAGGAAGGCCCAATAAGGGAAGGCCCAATAAGTGGGAAGGCCCAATAAGTGAATTAAATAAGTGATTGATAAATAAGTGATTGATAAGTTGATTAAATAGTTGGAAGTTATGTTTGGTAGATTGATGG / ACCTTCCTTAAACAAATAACCAACCAATCC [S160 with 5' end double-stranded]”: for the setting “slightly reduced without 5' ssDNA terminus, variant of S160”, the binding result is recorded as “binds more weakly”.

Turning to “GGATTGGTTGGTTATTTGTTTAAGGAAGGAAGAAGGAAGGCCCAATAAGGGAAGGCCCAATAAGTGGGAAGGCCCAATAAGTGAATTAAATAAGTGATTGATAAATAAGTGATTGATAAGTTGATTAAATAGTTGGAAGTTATGTTTGGTAGATTGATGG / ACCTTCCTTAAACAAATAACCAACCAATCC / CCATCAATCTACCAAACATAACTTCCATCA [S160 with both ends double-stranded]”, the binding result (markedly reduced when both termini double-stranded, variant of …) was “binds more weakly”.
